These are yes or no findings as the source states them, for the method shown. Binding seen in cells or lysates may run through a third protein. Some results given as binding are weak or reduced against the parent protein; the word gives no strength. For some assays here: Tags and fused reporters may be left off the sequences shown. Values belong to the substance of their own block, whether it stands above or below them.
Key:
[1] = molecular target: T1, full length FE65-GFP (UniProt O00213); test: co-IP; COS7 cells co-transfected with VLDLR and FE65 constructs; cell lysates (100-200 ug) immunoprecipitated by the tag or 5F3 (anti-HA, anti-myc, 5F3, anti-GFP) and the precipitate probed for the other protein's tag
T1 sequence: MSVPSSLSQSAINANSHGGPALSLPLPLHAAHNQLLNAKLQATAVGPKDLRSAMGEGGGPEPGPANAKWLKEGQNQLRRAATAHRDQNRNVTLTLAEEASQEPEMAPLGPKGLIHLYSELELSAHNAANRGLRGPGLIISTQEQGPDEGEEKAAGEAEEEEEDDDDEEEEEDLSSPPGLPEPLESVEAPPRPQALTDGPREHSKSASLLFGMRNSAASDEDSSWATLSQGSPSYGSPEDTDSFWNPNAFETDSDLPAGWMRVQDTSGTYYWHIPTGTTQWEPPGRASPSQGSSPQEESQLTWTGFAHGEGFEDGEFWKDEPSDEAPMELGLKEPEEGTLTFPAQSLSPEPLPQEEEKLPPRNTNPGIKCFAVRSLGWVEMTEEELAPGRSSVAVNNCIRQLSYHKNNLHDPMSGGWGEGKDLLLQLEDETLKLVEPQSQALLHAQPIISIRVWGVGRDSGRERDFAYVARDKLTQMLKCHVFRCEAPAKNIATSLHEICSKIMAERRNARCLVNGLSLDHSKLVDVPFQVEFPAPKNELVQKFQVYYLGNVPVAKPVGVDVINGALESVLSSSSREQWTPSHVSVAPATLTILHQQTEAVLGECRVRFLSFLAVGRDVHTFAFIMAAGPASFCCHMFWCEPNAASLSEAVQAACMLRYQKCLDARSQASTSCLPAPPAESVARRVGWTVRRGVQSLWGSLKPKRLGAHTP

Sequences of proteins named here, by UniProt entry; tags and fusion partners are left off. Residues count along the entry.
UniProt P98156, residues 28-873: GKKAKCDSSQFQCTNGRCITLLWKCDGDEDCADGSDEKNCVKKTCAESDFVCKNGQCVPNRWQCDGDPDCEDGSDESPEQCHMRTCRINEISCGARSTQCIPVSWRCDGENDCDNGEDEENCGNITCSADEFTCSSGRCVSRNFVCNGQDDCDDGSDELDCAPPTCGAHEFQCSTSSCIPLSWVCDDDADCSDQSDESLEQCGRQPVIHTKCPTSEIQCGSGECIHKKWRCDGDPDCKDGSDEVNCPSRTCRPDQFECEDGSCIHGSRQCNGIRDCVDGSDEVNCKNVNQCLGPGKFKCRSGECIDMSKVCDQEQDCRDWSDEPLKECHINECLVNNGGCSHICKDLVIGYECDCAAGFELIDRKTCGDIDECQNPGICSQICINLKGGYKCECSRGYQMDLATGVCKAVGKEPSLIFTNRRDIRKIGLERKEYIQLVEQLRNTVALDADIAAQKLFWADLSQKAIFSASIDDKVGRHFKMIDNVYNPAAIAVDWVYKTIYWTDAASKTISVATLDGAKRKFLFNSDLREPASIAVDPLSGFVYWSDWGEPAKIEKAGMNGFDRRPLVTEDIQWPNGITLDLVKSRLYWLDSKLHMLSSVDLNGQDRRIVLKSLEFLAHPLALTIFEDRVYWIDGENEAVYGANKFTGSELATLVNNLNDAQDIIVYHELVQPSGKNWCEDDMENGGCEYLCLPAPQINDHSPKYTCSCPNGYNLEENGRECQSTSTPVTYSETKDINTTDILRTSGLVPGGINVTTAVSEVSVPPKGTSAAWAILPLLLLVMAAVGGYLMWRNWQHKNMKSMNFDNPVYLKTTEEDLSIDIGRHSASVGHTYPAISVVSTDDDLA

[2] = molecular target: T2, FE65, endogenous in mouse brain (mouse (endogenous in brain)) (UniProt Q9QXJ1); test: co-IP; mouse whole brain lysates (100 ug), IP buffer 50 mM Tris-HCl pH 8.0, 0.15 M NaCl, 1% Nonidet P-40, overnight at 4°C with antibody (5F3, anti-FE65 or C1/6.1; IgG as control) and protein G-Sepharose; also lysates of 13 month old FE65 knockout mice against wild-type littermates (APP band with VLDLR decreased)
T2 sequence: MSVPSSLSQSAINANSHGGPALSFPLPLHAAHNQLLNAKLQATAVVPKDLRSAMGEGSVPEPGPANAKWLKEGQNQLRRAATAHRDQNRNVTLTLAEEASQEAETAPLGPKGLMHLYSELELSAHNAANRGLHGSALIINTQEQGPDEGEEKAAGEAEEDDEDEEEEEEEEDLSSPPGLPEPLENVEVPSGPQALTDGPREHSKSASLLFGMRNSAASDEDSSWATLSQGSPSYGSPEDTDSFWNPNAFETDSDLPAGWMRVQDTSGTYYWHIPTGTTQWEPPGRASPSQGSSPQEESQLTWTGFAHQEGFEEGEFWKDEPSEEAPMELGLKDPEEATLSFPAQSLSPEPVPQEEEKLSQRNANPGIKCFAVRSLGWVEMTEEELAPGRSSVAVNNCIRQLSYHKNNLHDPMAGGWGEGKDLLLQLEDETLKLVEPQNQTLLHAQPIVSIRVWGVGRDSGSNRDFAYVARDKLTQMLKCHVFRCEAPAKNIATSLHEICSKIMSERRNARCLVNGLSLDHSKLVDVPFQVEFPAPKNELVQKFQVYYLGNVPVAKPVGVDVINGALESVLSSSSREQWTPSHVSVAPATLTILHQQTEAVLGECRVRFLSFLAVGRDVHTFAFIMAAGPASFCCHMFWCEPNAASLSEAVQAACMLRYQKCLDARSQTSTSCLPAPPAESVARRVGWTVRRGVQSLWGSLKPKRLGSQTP

[3] = molecular target: full length VLDLR (HA-tagged on the C terminal) (UniProt P98155); test: co-IP; COS7 cells transfected with APP-v5 and VLDLR-HA with empty vector, FE65-GFP or FE65-PTB2 domain-GFP; lysates immunoprecipitated with anti-HA or 5F3 (VLDLR) and probed with anti-V5 or 22C11 (APP), or with anti-V5 and probed with anti-HA; FE65 increased the co-precipitate, FE65 PTB2 decreased it against full length FE65
[4] = molecular target: T3, full length FE65 (myc-tagged on the C terminal) (UniProt O00213); test: co-IP; COS7 cells co-transfected with VLDLR and FE65 constructs; cell lysates (100-200 ug) immunoprecipitated by the tag or 5F3 (anti-HA, anti-myc, 5F3, anti-GFP) and the precipitate probed for the other protein's tag
T3 sequence: T1 sequence

[5] = molecular target: APP-v5 (UniProt P05067); test: co-IP; COS7 cells transfected with APP-v5 and VLDLR-HA with empty vector, FE65-GFP or FE65-PTB2 domain-GFP; lysates immunoprecipitated with anti-HA or 5F3 (VLDLR) and probed with anti-V5 or 22C11 (APP), or with anti-V5 and probed with anti-HA; FE65 increased the co-precipitate, FE65 PTB2 decreased it against full length FE65

binding [1]: binds
Substance: full length VLDLR-myc (from UniProt P98155 28-873) (receptor)

binding [2]: binds
Substance: VLDLR, endogenous in mouse brain (from UniProt P98156 28-873) (receptor)

binding [3]: binds
Substance: APP-v5 (from UniProt P05067 18-770)

binding [4]: binds
binding [5]: binds
Substance: full length VLDLR (HA-tagged on the C terminal) (from UniProt P98155 28-873) (receptor)

From paper PMC3379943
